Test results as given in the supplement of paper PMC11006884.
This is a selection; strong and weak results do not stand in their true shares.

Chains of the proteins cited; added tags and fusions are not shown. Lines headed by an entry give the natural chain unless they say otherwise; changes in a name come on top.
UniProt Q92499: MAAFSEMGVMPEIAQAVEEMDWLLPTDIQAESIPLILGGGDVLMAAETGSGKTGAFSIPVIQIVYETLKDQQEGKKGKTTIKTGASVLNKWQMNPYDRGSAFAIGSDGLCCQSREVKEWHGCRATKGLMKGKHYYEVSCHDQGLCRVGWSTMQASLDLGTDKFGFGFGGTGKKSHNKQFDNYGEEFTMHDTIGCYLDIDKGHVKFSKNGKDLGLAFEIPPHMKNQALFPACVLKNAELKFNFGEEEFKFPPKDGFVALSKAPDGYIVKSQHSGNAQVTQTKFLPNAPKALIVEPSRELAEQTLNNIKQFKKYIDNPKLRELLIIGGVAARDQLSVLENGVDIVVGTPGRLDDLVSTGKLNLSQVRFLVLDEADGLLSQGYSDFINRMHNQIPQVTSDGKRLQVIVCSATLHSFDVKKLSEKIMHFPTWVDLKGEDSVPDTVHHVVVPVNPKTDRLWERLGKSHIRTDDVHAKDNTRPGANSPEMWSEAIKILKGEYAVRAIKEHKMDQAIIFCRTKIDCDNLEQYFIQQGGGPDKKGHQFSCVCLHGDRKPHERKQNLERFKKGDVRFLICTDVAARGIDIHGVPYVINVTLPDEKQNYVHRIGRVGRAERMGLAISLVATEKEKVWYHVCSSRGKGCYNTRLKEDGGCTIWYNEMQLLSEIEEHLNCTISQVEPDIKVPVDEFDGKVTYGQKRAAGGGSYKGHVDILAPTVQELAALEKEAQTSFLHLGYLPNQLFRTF
UniProt Q8N1G2: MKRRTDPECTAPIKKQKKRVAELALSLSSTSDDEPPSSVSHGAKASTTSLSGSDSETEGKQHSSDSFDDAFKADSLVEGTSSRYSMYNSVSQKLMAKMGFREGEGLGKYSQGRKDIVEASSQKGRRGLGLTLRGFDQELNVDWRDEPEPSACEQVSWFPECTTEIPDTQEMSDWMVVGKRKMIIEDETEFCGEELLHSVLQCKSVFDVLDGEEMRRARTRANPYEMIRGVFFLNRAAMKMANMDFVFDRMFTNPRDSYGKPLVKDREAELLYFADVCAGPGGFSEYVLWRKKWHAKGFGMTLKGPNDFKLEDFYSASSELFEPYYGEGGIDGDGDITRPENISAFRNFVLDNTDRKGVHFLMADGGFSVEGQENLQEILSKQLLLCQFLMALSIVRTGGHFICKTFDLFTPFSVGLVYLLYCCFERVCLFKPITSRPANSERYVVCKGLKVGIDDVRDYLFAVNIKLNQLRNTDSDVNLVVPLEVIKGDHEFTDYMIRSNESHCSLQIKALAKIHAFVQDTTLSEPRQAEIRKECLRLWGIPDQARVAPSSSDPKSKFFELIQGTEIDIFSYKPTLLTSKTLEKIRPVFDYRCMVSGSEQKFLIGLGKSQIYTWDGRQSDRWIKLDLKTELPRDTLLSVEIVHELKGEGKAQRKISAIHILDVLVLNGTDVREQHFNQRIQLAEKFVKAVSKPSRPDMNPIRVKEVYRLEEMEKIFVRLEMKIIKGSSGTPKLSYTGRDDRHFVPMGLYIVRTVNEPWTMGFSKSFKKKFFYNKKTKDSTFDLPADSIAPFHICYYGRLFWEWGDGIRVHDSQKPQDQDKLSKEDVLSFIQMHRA
UniProt Q8WXI9: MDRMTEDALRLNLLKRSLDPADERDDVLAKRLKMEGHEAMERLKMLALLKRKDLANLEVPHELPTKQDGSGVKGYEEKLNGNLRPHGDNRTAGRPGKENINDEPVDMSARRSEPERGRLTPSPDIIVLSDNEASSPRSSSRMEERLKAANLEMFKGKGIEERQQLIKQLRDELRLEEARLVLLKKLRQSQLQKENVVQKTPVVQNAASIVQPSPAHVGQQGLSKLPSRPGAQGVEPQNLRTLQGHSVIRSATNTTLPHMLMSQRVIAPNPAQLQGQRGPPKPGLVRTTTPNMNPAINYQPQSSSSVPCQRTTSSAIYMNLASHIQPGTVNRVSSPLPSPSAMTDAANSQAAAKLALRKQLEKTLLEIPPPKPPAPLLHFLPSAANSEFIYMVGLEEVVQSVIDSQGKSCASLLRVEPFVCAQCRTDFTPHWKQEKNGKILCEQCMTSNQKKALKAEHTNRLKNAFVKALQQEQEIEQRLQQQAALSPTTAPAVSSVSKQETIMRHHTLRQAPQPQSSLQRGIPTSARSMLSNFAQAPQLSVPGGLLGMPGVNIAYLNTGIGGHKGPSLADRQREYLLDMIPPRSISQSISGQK
UniProt Q8WYH8, whole entry: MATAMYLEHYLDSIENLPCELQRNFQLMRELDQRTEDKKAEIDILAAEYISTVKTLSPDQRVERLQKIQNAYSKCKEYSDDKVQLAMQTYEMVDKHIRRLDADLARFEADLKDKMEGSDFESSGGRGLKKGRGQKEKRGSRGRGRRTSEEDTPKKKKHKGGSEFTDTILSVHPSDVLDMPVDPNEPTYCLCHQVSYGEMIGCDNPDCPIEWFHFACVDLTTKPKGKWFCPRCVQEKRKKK
UniProt Q8N9F7: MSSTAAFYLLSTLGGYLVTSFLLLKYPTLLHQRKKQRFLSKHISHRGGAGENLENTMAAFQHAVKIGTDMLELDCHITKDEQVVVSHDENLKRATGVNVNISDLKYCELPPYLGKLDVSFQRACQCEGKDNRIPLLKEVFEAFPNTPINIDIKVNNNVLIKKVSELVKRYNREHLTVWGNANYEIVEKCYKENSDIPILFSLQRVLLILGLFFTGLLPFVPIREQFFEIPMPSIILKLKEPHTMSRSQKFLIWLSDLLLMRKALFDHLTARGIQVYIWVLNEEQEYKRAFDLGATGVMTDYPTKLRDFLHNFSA
UniProt Q8NFI3: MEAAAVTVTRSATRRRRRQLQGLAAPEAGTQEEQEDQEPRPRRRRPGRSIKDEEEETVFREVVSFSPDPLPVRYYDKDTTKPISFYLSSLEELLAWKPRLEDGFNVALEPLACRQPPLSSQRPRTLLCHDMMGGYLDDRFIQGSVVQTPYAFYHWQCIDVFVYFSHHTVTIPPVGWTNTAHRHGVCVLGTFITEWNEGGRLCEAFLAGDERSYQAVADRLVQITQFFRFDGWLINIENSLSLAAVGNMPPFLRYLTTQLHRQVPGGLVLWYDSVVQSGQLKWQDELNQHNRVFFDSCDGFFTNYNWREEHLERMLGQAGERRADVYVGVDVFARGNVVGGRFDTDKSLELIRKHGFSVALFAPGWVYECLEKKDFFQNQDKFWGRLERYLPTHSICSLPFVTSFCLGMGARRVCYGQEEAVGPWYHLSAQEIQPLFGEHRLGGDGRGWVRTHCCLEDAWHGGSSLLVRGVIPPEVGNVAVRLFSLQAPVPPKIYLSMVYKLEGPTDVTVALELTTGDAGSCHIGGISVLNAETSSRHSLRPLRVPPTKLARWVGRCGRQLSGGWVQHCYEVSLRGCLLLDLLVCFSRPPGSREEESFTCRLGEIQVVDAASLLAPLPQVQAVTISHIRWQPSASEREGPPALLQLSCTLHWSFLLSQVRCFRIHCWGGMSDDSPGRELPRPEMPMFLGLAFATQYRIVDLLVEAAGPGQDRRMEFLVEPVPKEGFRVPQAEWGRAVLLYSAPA
UniProt Q8NC60: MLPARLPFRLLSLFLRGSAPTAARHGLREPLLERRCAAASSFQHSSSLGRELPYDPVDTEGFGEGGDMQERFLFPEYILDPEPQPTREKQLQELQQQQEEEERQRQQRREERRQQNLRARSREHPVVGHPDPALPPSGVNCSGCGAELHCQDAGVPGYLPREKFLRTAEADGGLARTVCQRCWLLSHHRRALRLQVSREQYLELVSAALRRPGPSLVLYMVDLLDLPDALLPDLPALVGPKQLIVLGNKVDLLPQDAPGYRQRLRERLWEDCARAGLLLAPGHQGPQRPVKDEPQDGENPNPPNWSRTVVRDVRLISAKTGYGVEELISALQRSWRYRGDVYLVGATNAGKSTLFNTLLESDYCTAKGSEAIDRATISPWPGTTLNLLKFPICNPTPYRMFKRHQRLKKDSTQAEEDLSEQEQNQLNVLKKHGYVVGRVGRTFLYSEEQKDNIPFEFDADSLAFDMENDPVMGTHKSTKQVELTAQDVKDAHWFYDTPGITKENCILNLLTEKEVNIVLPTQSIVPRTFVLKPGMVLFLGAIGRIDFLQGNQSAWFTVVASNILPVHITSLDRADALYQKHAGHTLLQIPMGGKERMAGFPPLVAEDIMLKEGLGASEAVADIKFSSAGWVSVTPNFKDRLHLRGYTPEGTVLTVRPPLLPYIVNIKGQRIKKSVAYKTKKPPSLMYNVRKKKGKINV
UniProt Q8N201, whole entry, looked up: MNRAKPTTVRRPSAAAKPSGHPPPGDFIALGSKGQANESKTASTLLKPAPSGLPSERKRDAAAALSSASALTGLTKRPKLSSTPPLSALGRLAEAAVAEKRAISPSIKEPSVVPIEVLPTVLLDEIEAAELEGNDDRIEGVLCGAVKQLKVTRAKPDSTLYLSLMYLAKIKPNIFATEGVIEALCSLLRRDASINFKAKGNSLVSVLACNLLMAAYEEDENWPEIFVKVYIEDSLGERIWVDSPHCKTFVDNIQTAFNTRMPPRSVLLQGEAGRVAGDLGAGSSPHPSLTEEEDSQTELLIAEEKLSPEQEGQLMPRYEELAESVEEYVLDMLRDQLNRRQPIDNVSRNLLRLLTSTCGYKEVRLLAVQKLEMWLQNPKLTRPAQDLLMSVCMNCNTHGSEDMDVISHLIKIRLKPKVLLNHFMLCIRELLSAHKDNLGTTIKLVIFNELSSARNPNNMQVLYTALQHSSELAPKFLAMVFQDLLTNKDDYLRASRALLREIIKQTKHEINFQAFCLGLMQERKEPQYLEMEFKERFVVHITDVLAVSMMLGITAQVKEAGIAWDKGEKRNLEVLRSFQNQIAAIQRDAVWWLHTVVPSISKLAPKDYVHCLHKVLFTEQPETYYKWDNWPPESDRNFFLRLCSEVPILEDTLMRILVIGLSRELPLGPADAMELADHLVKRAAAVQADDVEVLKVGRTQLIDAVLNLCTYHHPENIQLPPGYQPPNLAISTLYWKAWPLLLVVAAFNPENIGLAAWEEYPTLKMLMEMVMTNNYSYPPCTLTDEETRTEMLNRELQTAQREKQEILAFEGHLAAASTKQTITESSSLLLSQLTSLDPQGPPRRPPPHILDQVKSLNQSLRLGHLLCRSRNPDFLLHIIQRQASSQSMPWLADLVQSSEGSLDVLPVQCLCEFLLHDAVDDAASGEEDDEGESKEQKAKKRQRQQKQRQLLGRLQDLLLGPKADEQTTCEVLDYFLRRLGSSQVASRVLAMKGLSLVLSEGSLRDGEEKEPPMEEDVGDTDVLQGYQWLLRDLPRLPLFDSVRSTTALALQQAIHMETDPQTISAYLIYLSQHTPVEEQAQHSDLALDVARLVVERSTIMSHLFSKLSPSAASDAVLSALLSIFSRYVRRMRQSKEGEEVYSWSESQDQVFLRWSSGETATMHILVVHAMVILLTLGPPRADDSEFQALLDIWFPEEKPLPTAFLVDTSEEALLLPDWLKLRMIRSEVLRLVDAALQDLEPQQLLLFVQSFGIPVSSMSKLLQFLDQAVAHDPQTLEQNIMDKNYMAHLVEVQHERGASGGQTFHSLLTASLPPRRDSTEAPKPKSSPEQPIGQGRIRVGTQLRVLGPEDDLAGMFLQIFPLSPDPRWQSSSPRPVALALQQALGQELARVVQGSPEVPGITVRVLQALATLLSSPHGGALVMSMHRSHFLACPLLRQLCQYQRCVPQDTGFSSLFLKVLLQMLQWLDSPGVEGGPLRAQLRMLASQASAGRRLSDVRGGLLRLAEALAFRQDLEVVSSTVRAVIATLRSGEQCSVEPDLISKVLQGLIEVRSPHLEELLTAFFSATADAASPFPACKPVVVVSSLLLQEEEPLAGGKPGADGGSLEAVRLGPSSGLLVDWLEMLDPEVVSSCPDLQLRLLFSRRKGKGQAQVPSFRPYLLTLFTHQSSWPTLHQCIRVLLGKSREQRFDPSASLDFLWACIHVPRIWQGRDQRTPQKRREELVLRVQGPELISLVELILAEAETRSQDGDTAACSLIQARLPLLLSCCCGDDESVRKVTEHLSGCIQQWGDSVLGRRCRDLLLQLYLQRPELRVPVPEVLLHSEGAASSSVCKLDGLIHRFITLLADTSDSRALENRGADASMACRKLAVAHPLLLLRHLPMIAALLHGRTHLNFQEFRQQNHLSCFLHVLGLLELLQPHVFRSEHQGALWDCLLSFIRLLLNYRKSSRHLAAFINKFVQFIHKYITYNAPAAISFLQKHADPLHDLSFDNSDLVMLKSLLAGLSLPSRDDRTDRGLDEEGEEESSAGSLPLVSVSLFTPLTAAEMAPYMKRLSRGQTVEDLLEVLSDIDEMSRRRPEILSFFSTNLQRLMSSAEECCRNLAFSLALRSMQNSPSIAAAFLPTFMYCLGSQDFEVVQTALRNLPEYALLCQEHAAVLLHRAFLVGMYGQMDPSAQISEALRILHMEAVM

compound: COC(=O)C#Cc1ccccc1 [methyl 3-phenylpropiolate]; assay: log2 ratio of iodoacetamide-alkyne labeling of the cysteine site, DMSO over compound (competition); higher = stronger covalent engagement of the cysteine by the compound, active = 1 or more; settings: 500 µM; treatment time 1 h; system: HEK293T cell lysate
In short: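 Electrophile (500 µM) or vehicle was added to HEK293T lysate (2 mg/mL) for 1 h at ambient temperature before iodoacetamide alkyne labelling (1 h) and click coupling to sCIP-TMT reagents. After pooling, overnight trypsin digestion at 37 °C, streptavidin enrichment and acid elution, peptides were measured by Orbitrap Eclipse LC-MS/MS with FAIMS and quantified in FragPipe. Each cysteine's log2 competition ratio compares mean control-channel with mean compound-channel reporter intensity, control over compound. Data came from duplicate channels across three replicates, excluding cysteines quantified in only one replicate.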

log2 ratio of iodoacetamide-alkyne labeling, inactive:
UniProt Q8WZA9_C158 0.611, DDX1 C231 (UniProt Q92499) 0.159, FBXO30 C592 (UniProt Q8TB52) 0.622, PSMF1 C185 (UniProt Q92530) 0.258, UniProt Q8N1G2_C794 0.107, AHCTF1 C693 (UniProt Q8WYP5) 0.747, GATAD2B C420 (UniProt Q8WXI9) 0.12, ING5 C19 (UniProt Q8WYH8) 0.29, LRRC47 C249 (UniProt Q8N1G4) 0.221, UniProt Q8N5Z5_C61 -0.111, GDPD1 C107 (UniProt Q8N9F7) 0.0424, ENGASE C113 (UniProt Q8NFI3) 0.206, UniProt Q8NC60_C505 -0.174, UniProt Q8NI60_C641 0.356, INTS1 C643 (UniProt Q8N201) 0.127
